The target in assay [1] is Tribbles homolog 3 (TRIB3), endogenous in human breast cancer cells (human (endogenous in MCF7, MDA-MB-231, PDX BCCs)) (UniProt Q96RU7). The experiment in a line: co-IP; endogenous AKT1 and TRIB3; cells not named.
The target in the next assay is TRIB3-HA (human) (UniProt Q96RU7). Put plainly: co-IP; HEK293T cells co-transfected with AKT1-Myc and TRIB3-HA constructs; cell extracts IP with an anti-HA Ab.
Assay [2] deals with AKT1, endogenous in human cells (human (endogenous in HMLE, MCF7, MDA-MB-231, PDX BCCs)) (UniProt P31749). Put plainly: co-IP; HMLE cell extracts IP with an anti-AKT1 Ab, blotted with an anti-FOXO1 Ab, in the presence of the indicated concentration of the TRIB3-GST protein.

Chains of the proteins cited; added tags and fusions are not shown. Lines headed by an entry give the natural chain unless they say otherwise; changes in a name come on top. A line that says so, or that is headed by a name, gives the form on record, which may keep a tag or linker.
UniProt Q96RU7: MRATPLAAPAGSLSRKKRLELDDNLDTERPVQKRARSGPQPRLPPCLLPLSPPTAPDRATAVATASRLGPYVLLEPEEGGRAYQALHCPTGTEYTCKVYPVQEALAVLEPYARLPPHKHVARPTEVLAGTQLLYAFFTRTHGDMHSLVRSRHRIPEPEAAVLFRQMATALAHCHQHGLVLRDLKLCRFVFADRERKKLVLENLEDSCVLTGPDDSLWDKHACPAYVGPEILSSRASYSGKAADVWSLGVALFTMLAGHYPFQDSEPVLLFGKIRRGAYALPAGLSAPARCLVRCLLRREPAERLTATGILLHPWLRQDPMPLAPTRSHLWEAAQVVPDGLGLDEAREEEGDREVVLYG
UniProt P31749: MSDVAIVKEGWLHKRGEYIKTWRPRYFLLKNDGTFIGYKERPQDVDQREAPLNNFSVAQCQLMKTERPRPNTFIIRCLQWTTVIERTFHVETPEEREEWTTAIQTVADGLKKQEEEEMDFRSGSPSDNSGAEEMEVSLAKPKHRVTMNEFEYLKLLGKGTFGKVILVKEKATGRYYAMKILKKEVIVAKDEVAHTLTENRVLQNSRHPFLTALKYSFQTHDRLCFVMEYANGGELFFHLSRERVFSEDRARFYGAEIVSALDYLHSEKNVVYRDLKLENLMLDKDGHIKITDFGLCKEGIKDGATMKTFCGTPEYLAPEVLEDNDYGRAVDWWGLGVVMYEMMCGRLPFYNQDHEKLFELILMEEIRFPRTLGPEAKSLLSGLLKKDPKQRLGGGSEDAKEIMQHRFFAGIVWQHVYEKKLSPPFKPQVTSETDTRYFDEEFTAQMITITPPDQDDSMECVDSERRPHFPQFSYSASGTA
AKT1-Myc △WX mutant (P31749, form named): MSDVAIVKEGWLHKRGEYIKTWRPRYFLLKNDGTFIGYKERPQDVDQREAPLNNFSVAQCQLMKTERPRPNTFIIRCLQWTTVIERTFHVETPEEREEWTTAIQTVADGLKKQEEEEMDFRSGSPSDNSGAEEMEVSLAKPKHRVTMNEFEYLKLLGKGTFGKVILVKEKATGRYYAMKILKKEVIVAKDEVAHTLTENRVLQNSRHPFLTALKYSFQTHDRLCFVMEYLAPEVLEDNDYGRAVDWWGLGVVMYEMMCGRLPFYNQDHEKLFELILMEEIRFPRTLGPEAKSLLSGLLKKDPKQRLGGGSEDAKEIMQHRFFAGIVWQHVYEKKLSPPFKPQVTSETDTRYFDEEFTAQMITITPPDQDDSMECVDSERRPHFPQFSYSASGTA
UniProt Q12778: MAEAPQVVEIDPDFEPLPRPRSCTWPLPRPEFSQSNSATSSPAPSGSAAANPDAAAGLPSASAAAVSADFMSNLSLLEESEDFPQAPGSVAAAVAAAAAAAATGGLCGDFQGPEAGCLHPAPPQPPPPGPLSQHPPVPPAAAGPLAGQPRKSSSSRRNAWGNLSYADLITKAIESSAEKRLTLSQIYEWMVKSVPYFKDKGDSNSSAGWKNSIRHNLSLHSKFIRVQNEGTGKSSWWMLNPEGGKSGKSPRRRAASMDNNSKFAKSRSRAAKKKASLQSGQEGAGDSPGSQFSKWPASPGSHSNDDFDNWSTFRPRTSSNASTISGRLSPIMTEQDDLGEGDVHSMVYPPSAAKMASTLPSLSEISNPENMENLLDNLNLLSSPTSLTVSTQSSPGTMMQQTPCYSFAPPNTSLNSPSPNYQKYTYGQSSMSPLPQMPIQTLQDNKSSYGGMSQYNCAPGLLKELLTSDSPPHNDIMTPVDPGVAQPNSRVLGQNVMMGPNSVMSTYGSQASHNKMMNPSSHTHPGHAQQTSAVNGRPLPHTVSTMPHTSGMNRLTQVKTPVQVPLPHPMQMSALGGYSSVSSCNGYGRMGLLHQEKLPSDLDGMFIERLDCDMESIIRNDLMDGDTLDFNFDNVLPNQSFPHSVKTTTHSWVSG

These are yes or no findings as the source states them, for the method shown. Binding seen in cells or lysates may run through a third protein. Some binding calls cover weakened binding; strength is not graded here.

As for “AKT1, endogenous in human cells (from UniProt P31749 1-480)”, the binding result in assay [1] was “binds”.
On to “AKT1-Myc △WX mutant (from UniProt P31749 1-480)”, for which, in the assay with TRIB3-HA (human), the binding result is “binds”.
The same measure, in the same setting: the same measure for “AKT1-Myc, full-length (FL amino acids 1–480) (from UniProt P31749 1-480)”: “binds”.
For the substance “Forkhead box O1 (FOXO1), endogenous in human cells (from UniProt Q12778 1-655)”, the binding entry in assay [2] is “binds”.
